Publication PMC3046128, “Systematic Two-Hybrid and Comparative Proteomic Analyses Reveal Novel Yeast Pre-mRNA Splicing Factors Connected to Prp19” (PLoS ONE, 2011)
No constants are given. Whether binding was seen depends on the method and setting. For some assays here: Binding seen in cells or lysates may run through a third protein. Some results given as binding are weak or reduced against the parent protein; the word gives no strength. For some assays here: Where a sequence is shown, tags or fusion partners need not be part of it.

T1: SpPrp19-TAP (S. pombe) (UniProt O14011)
T1 sequence: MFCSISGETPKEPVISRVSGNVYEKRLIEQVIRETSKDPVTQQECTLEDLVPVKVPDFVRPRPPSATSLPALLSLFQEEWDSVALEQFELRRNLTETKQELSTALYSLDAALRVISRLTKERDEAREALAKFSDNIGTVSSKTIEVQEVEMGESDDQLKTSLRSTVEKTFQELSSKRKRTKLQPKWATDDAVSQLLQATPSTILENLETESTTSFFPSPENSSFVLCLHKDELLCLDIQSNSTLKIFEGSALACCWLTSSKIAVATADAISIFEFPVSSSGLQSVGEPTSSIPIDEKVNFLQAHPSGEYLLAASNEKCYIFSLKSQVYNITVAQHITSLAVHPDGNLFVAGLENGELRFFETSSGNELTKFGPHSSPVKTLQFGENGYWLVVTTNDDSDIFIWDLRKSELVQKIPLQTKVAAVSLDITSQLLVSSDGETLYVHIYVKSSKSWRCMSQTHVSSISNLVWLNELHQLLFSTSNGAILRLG

T2: His6-ScPrp19(144–503) (S. cerevisiae, UniProt P32523 144-503)
T2 construct: Prp19, S. cerevisiae, amino acids 144–503; also called His6-Prp19(144–503); ScPrp19 WD40 domain; source: E. coli BL21 (pET15b), purified (Ni-NTA agarose)
T2 sequence (looked up): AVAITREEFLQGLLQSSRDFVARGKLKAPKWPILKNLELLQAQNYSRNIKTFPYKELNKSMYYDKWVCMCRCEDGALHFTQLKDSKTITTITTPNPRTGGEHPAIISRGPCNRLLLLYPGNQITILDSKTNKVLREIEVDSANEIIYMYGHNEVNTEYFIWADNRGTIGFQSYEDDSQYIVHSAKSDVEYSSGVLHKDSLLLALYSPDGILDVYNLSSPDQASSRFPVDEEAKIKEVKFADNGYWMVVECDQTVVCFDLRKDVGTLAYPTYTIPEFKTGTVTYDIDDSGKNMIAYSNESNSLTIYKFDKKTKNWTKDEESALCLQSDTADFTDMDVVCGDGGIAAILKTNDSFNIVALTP

B1: SpCdc5 (Figure 5E) (protein, UniProt P39964 1-757)
chain: MVVLKGGAWKNTEDEILKAAVSKYGKNQWARISSLLVRKTPKQCKARWYEWIDPSIKKTEWSREEDEKLLHLAKLLPTQWRTIAPIVGRTATQCLERYQKLLDDLEAKENEQLGLISGEGAEAAAPVNDPNSRLRFGEAEPNLETLPALPDAIDMDEDEKEMLSEARARLANTQGKKAKRKDREKQLELTRRLSHLQKRRELKAAGINIKLFRRKKNEMDYNASIPFEKKPAIGFYDTSEEDRQNFREKREADQKIIENGIRNNEMESEGRKFGHFEKPKPIDRVKKPNKDAQEEKMRRLAEAEQMSKRRKLNLPSPTVSQDELDKVVKLGFAGDRARAMTDTTPDANYSTNLLGKYTQIERATPLRTPISGELEGREDSVTIEVRNQLMRNREQSSLLGQESIPLQPGGTGYTGVTPSHAANGSALAAPQATPFRTPRDTFSINAAAERAGRLASERENKIRLKALRELLAKLPKPKNDYELMEPRFADETDVEATVGVLEEDATDRERRIQERIAEKERLAKARRSQVIQRDLIRPSVTQPEKWKRSLENEDPTANVLLKEMIALISSDAINYPFGNSKVKGTANKVPDLSNEEIERCRLLLKKEIGQLESDDYIQFEKEFLETYSALHNTSSLLPGLVIYEEDDEDVEAAEKFYTNDIQRDLAKKALECNKLENRVYDLVRSSYEQRNFLIKKISHAWKALQTERKNLTCYEFLYNQERLALPNRLEAAEIELSKMQQIEAYAQQDYARVTGQN
B2: Cwc2-GFP (S. cerevisiae) (protein, UniProt Q12046 1-339)
chain: MTSWRDKSAKVQVKESELPSSIPAQTGLTFNIWYNKWSQGFAGNTRFVSPFALQPQLHSGKTRGDNDGQLFFCLFFAKGMCCLGPKCEYLHHIPDEEDIGKLALRTEVLDCFGREKFADYREDMGGIGSFRKKNKTLYVGGIDGALNSKHLKPAQIESRIRFVFSRLGDIDRIRYVESKNCGFVKFKYQANAEFAKEAMSNQTLLLPSDKEWDDRREGTGLLVKWANEDPDPAAQKRLQEELKLESLNMMVHLINNNTNSAGTEVNNKNNERLDRTFPEASVDNVKKRLLPLDNGMESDDFIEKLKKVKKNISRENISSKPSVGKLGGPLLDYLSSDED
B3: GFP-tagged Mih1 (S. cerevisiae) (protein, UniProt P23748 1-554)
chain: MNNIFHGTEDECANEDVLSFQKISLKSPFGKKKNIFRNVQTFFKSKSKHSNVDDDLINKENLAFDKSPLLTNHRSKEIDGPSPNIKQLGHRDELDENENENDDIVLSMHFASQTLQSPTRNSSRRSLTNNRDNDLLSRIKYPGSPQRSSSFSRSRSLSRKPSMNSSSNSSRRVQRQDGKIPRSSRKSSQKFSNITQNTLNFTSASSSPLAPNSVGVKCFESCLAKTQIPYYYDDRNSNDFFPRISPETLKNILQNNMCESFYNSCRIIDCRFEYEYTGGHIINSVNIHSRDELEYEFIHKVLHSDTSNNNTLPTLLIIHCEFSSHRGPSLASHLRNCDRIINQDHYPKLFYPDILILDGGYKAVFDNFPELCYPRQYVGMNSQENLLNCEQEMDKFRRESKRFATKNNSFRKLASPSNPNFFYRDSHQSSTTMASSALSFRFEPPPKLSLNHRRVSSGSSLNSSESTGDENFFPILSKSSMSSNSNLSTSHMLLMDGLDTPSYFSFEDERGNHQQVSGDEEQDGDFTFVGSDREDLPRPARRSLFPSLETEDKK
B4: Prp17-GFP (S. cerevisiae) (protein, UniProt P40968 1-455)
chain: MGLVDGYDTSSDSDLNFDEGKSVHEKKNGNLHEDTSYEPSSNNIHKRKSHFTKSELKRRRKTRKGDGPWGSWSSSDDETSQASETQKEDQDIFVHALAEDNLDSEQIEVEEVSHFYGKSEKDYQGRGYLYPPNDVDVDLREERISFRCYLPKKVIRNYPGHPEGTTALKFLPKTGHLILSGGNDHTIKIWDFYHDYECLRDFQGHNKPIKALRFTEDCQSFLSSSFDRSVKIWDTETGKVKTRLHLNSTPADVESRPTNPHEFIVGLSNSKILHYDDRVSENQGLVQTYDHHLSSILALKYFPDGSKFISSSEDKTVRIWENQINVPIKQISDTAQHSMPFLNVHPSQNYFCAQSMDNRIYSFSLKPKYKRHPKKIFKGHSSAGYGISLAFSGDGRYICSGDSKSRLFTWDWNTSRLLNNIKIPGNKPITQVDWHPQETSKVICSGAAGKIYVCD
B5: GFP-tagged Ufd4 (S. cerevisiae) (protein, UniProt P33202 1-1483)
chain: MSENNSHNLDEHESHSENSDYMMDTQVEDDYDEDGHVQGEYSYYPDEDEDEHMLSSVGSFEADDGEDDDNDYHHEDDSGLLYGYHRTQNGSDEDRNEEEDGLERSHDNNEFGSNPLHLPDILETFAQRLEQRRQTSEGLGQHPVGRTLPEILSMIGGRMERSAESSARNERISKLIENTGNASEDPYIAMESLKELSENILMMNQMVVDRIIPMETLIGNIAAILSDKILREELELQMQACRCMYNLFEVCPESISIAVDEHVIPILQGKLVEISYIDLAEQVLETVEYISRVHGRDILKTGQLSIYVQFFDFLTIHAQRKAIAIVSNACSSIRTDDFKTIVEVLPTLKPIFSNATDQPILTRLVNAMYGICGALHGVDKFETLFSLDLIERIVQLVSIQDTPLENKLKCLDILTVLAMSSDVLSRELREKTDIVDMATRSFQHYSKSPNAGLHETLIYVPNSLLISISRFIVVLFPPEDERILSADKYTGNSDRGVISNQEKFDSLVQCLIPILVEIYTNAADFDVRRYVLIALLRVVSCINNSTAKAINDQLIKLIGSILAQKETASNANGTYSSEAGTLLVGGLSLLDLICKKFSELFFPSIKREGIFDLVKDLSVDFNNIDLKEDGNENISLSDEEGDLHSSIEECDEGDEEYDYEFTDMEIPDSVKPKKISIHIFRTLSLAYIKNKGVNLVNRVLSQMNVEQEAITEELHQIEGVVSILENPSTPDKTEEDWKGIWSVLKKCIFHEDFDVSGFEFTSTGLASSITKRITSSTVSHFILAKSFLEVFEDCIDRFLEILQSALTRLENFSIVDCGLHDGGGVSSLAKEIKIKLVYDGDASKDNIGTDLSSTIVSVHCIASFTSLNEFLRHRMVRMRFLNSLIPNLTSSSTEADREEEENCLDHMRKKNFDFFYDNEKVDMESTVFGVIFNTFVRRNRDLKTLWDDTHTIKFCKSLEGNNRESEAAEEANEGKKLRDFYKKREFAQVDTGSSADILTLLDFLHSCGVKSDSFINSKLSAKLARQLDEPLVVASGALPDWSLFLTRRFPFLFPFDTRMLFLQCTSFGYGRLIQLWKNKSKGSKDLRNDEALQQLGRITRRKLRISRKTIFATGLKILSKYGSSPDVLEIEYQEEAGTGLGPTLEFYSVVSKYFARKSLNMWRCNSYSYRSEMDVDTTDDYITTLLFPEPLNPFSNNEKVIELFGYLGTFVARSLLDNRILDFRFSKVFFELLHRMSTPNVTTVPSDVETCLLMIELVDPLLAKSLKYIVANKDDNMTLESLSLTFTVPGNDDIELIPGGCNKSLNSSNVEEYIHGVIDQILGKGIEKQLKAFIEGFSKVFSYERMLILFPDELVDIFGRVEEDWSMATLYTNLNAEHGYTMDSSIIHDFISIISAFGKHERRLFLQFLTGSPKLPIGGFKSLNPKFTVVLKHAEDGLTADEYLPSVMTCANYLKLPKYTSKDIMRSRLCQAIEEGAGAFLLS
B6: GFP-tagged YOR314w (S. cerevisiae) (protein, UniProt Q12506 1-109)
chain: MTMIRFCGARQSAIISNASDAAAGTNKKRILNPLESLCLNDRIDEHRCKEVQLSSLRSLLYAMILNRTIGSETGVFSFLLFSFRYFGEERDLFYCFFSVFLLNITYLLD
B7: GFP-tagged YPL257w (S. cerevisiae) (protein, UniProt Q08974 1-193)
chain: MTAHANERISDVSPSARGSSSESKYDKLCRVLFFIAITKSSFTPEHILYKHSIFTDKPILADIVTFMYAAFVSIGWFLIWGERAYRTQEMGQPPMYSNINYHLLSFKKRHPKKFTCALWLVFFLAYTVLTVLIWLVQLIFRKGNVFQMLLQLIILDIAIALVNVAIAFTFEIYLSQKAAIEIRDEGLNNLDTA
B8: GFP-tagged Uba3 (S. cerevisiae) (protein, UniProt Q99344 1-299)
chain: MDCKILVLGAGGLGCEILKNLTMLSFVKQVHIVDIDTIELTNLNRQFLFCDKDIGKPKAQVAAQYVNTRFPQLEVVAHVQDLTTLPPSFYKDFQFIISGLDAIEPRRFINETLVKLTLESNYEICIPFIDGGTEGLKGHVKTIIPGITACWECSIDTLPSQQDTVPMCTIANNPRCIEHVVEYVSTIQYPDLNIESTADMEFLLEKCCERAAQFSISTEKLSTSFILGIIKSIIPSVSTTNAMVAATCCTQMVKIYNDLIDLENGNNFTLINCSEGCFMYSFKFERLPDCTVCSNSNSN

The binders below were run against T1, SpPrp19-TAP (S. pombe) (assay: tandem affinity purification with immunoblot; SpPrp19-TAP complexes isolated from S. pombe strains with Myc- and GFP-tagged partners; the eluate probed by immunoblot).

| binding | Binder |
| --- | --- |
| binds | B1 |

Each binder was assayed against T2, His6-ScPrp19(144–503) (assay: pull-down; His6-Prp19(144–503) on Ni-NTA beads mixed 1 hr at 4°C with S. cerevisiae protein lysates expressing GFP-tagged proteins; washed with bead binding buffer with 5 mM imidazole; anti-GFP immunoblot; only the target purified).

| binding | Binder |
| --- | --- |
| binds | B2 |
| no binding | B3 |
| binds | B4 |
| no binding | B5 |
| no binding | B6 |
| no binding | B7 |
| no binding | B8 |
